PubChem BioAssay AID720505 – Drosophila RNAi Screening Center | 2013

Aim: 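Knock-downs that reduce calcium influx once internal stores are emptied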 (primary screen)
Cell system: Drosophila S2R+ cells
Reagent: long dsRNA against Drosophila genes
Challenge: thapsigargin (2 µM) in calcium-free buffer to empty internal stores, then 2 mM calcium added back
Measured: 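Fluo-4 signal in 384-well plates read on a FLIPR after thapsigargin (2 µM, calcium-free) store depletion and 2 mM calcium add-back; unnormalised mean endpoint per well; screen run twice, selected wells retested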
Direction: calcium signal and retest calcium signal: higher = more calcium entry after store depletion
Call rule: 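About 1500 genes called as lowering calcium entry, by varying amounts, judged against per-plate control wells with STIM1 as positive and Rho1 as negative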
Meaning of the calls: active = called as lowering calcium entry; inactive = not called
The deposit covers about 20,000 reagents; this is an unselected part of those that have a named target and a result. Over the whole deposit, about 2,100 (10%) were called active. 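Raw plate signals without normalisation; calls rest on control-based scores that were not deposited; replicate 2 separates called from uncalled poorly.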 The numbers tell different reagents against one gene apart. Reagent sequences are not shown. The record does not give: the amount of reagent, the time to read-out.

target	dsRNA no.	calcium signal, replicate 1	calcium signal, replicate 2	retest calcium signal, replicate 1	retest calcium signal, replicate 2	outcome
CG18823	1	104	144			inactive
CG14434	1	329	173			inactive
Scgbeta	1	142	151			inactive
Septin2	1	224	205			inactive
CG15803	1	145	172			inactive
Oxp	1	133	155			inactive
Rbp1-like	1	144	101			inactive
Rbp1-like	2	107	272			inactive
Rbp1-like	3	92.3	269			inactive
CG32354	1	62.9	86.9			active
CG32354	2	93.5	69.2	7336	104	inactive
CG32354	3	112	249			inactive
Cep290	1	109	80.9			inactive
RpL9	1	119	108			inactive
Smox	1	164	133			inactive
CG43901	1	50.5	99.6			active
CG43901	2	70	107			active
CG43901	3	65.3	122	5823	83	active
CG43901	4	75.9	95.2			inactive
Ugt49B2	1	132	128			inactive
CG12229	1	114	187			inactive
CG15471	1	268	109			inactive
CG7099	1	101	131			inactive

Next part; the last 6 above are carried over.
target	dsRNA no.	calcium signal, replicate 1	calcium signal, replicate 2	retest calcium signal, replicate 1	retest calcium signal, replicate 2	outcome
CG43901	3	65.3	122	5823	83	active
CG43901	4	75.9	95.2			inactive
Ugt49B2	1	132	128			inactive
CG12229	1	114	187			inactive
CG15471	1	268	109			inactive
CG7099	1	101	131			inactive
CG31661	1	163	156			inactive
CG31697	1	110	151			inactive
oaf	1	194	137			inactive
Lnpk	1	156	153			inactive
Tengl4	1	47.6	180			active
CG8534	1	146	107			inactive
CG5151	1	106	168			inactive
CG5151	2	113	161			inactive
CG7714	1	162	144			inactive
CG11249	1	136	146			inactive
CG16894	1	139	133	131	112	inactive
CG16894	2	152	97.9			inactive
CG4712	1	109	169			inactive
CG14024	1	88.7	149			inactive
CG14024	2	138	154			inactive
Uvrag	1	114	98.5			inactive
M7BP	1	90.8	117			inactive
M7BP	2	106	91.2			inactive
M7BP	3	142	76.9			inactive
M7BP	4	119	126			inactive
M7BP	5	135	202			inactive
CG34451	1					active
CG7488	1	85.3	95.9			inactive
Hsc70-2	1	117	171			inactive
Wdr33	1	140	186			inactive
Cat	1	98.7	137			inactive
Gnptab	1	161	168			inactive
CG13315	1	72.7	80.9			inactive
CG3635	1	104	79.6			inactive
beta-Spec	1	85.1	131			inactive
bys	1	108	103			inactive
epsilonCOP	1	121	230			inactive
CG5849	1	161	113			inactive
